Some of the results follow.

Protein sequences, listed by entry. Tags and fused reporters are not part of them.
UniProt Q0JBA9, entry or part of it: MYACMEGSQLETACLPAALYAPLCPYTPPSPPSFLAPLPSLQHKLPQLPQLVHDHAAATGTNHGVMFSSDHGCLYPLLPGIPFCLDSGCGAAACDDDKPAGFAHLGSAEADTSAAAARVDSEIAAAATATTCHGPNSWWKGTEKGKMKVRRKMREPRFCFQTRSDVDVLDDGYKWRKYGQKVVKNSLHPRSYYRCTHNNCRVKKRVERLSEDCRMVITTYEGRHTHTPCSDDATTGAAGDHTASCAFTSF

The test has as its target OsWRKY34 (Oryza sativa, UniProt Q0JBA9 1-250). The test is described as follows: protein-binding microarray (RPBM); PBS, 2% BSA, 51.3 ng/ul salmon testes DNA, 50 uM zinc acetate, 200 nM TF, 25 C, 1 h; high values mean tight binding. To be noted: protein: recombinant; tags: N-terminal polyhistidine and DsRed monomer fusion (pET32a); label: CyDye5-dUTP incorporated in the synthesized complementary strand; 3' TTTTT single-stranded linker to array surface; dsDNA, one strand shown. The gist of the method:
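Binding signal is reported as fluorescence intensity per feature (arbitrary units) from an Axon 4000B scanner. Incubation used 200 nM of each Ni–NTA-purified, N-terminally polyhistidine- and DsRed-fused transcription factor from E. coli BL21-CodonPlus on a double-stranded custom Agilent array for 1 h at 25 °C, with 50 µM zinc acetate in the buffer, followed by washing.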
In the case of “GTTGCCGTACACCTGCAGCTTTGGAAGCTTCCAGTTAATACGGAGTCACCTAGTGCAG”, the binding signal was 9680 fluorescence intensity (a.u.). The value for “GCTATACATCCGCTTGTTTGTTTCTCACTATCCTCGTTTGCGGAGTCACCTAGTGCAG” was 13400 fluorescence intensity (a.u.); that for “TCCCTCTAAACGATCTTTTTTGTGCGATTTCTTTTTCAAACGGAGTCACCTAGTGCAG” was 8380 fluorescence intensity (a.u.); that for “TTAAACTGTCATACATACATAACTTTTCAGTCACATCGTACGGAGTCACCTAGTGCAG” was 9490 fluorescence intensity (a.u.). Consider “TTTATCTCTCTTCTCTCTGTTTTTCCGTGTCAGCAAATATCGGAGTCACCTAGTGCAG”, for which the binding signal was 11400 fluorescence intensity (a.u.).

“ACACGGATATAACACTATATCTAGATTCGTTCGTTGTACTCGGAGTCACCTAGTGCAG”: the binding signal was 9810 fluorescence intensity (a.u.). As to “CTTCTCTGCCCGCCGATCTGCCTCGCCACGCGGTTCGTCGCGGAGTCACCTAGTGCAG”, the binding signal is 9520 fluorescence intensity (a.u.).

For the sequence “GACCACTGCTGCTTGCGACGCCGTCCTCCTCCCGCATCGCCGGAGTCACCTAGTGCAG”, the binding signal is 9000 fluorescence intensity (a.u.). In the case of “CTACCGTTGACTTTGGTTGGGCCACATCTTCAGAGGTCAACGGAGTCACCTAGTGCAG”, the binding signal is 15700 fluorescence intensity (a.u.).

As to “TGTGAATCACTCTATAGTTTTGGATCATCGCAGCTTAAACCGGAGTCACCTAGTGCAG”, the binding signal is 8350 fluorescence intensity (a.u.). The value for “GTCTTTGTTGTTTTGTGGAATAAATTTCCTGCAGATTGTCCGGAGTCACCTAGTGCAG” was 8240 fluorescence intensity (a.u.). For the sequence “TACCATCAAATTTGCGTGTCTCAACTTTTTTACCACTCAACGGAGTCACCTAGTGCAG”, the binding signal was 8320 fluorescence intensity (a.u.). With “GTATTTAGGCCACAAGGATGATGCTACACTCTGCTTACTACGGAGTCACCTAGTGCAG”, the binding signal is 9120 fluorescence intensity (a.u.). Consider “GTTTTCCTTTTTTTTTTTTACCGATTGTCCAATTCAAGTTCGGAGTCACCTAGTGCAG”, for which the binding signal was 9390 fluorescence intensity (a.u.). The value for “ATTCCCATTTTGCACGTATAGACAGTTAATCAAGATCATTCGGAGTCACCTAGTGCAG” was 10700 fluorescence intensity (a.u.); that for “GCGTCCTTTGCGTCCTTTTGCTGCTCCGTCCTCCATGATCCGGAGTCACCTAGTGCAG” was 8050 fluorescence intensity (a.u.); that for “TTTATACATTGTGGTTGCTCTAGGGGTGTGCAAAATAGTTCGGAGTCACCTAGTGCAG” was 12400 fluorescence intensity (a.u.). As to “CCTCTCTCTCTCTCTCTCTCTCTCGCTCGCTTGCTTTACCCGGAGTCACCTAGTGCAG”, the binding signal was 9800 fluorescence intensity (a.u.). The value for “CTTCTCCACGGCTTCTATGGTTGGCGTCGCCCGATAAGACCGGAGTCACCTAGTGCAG” was 9720 fluorescence intensity (a.u.); that for “CGTCTCGCTTTCCCAGCCGATTTATTTCTAACGATGAAATCGGAGTCACCTAGTGCAG” was 9450 fluorescence intensity (a.u.); that for “TTTCCTCTCTCTCTCTCCCAGCCCGCACTCCCTTTCTCTCCGGAGTCACCTAGTGCAG” was 8780 fluorescence intensity (a.u.). “CCACGCTATCGATTTCCTCTTTTTTTTTGCCACCCTCGTCCGGAGTCACCTAGTGCAG”: the binding signal is 11300 fluorescence intensity (a.u.). The value for “CACCTTTGACCTTTCCAACCTAATTAATTAGCTACTACCCCGGAGTCACCTAGTGCAG” was 8620 fluorescence intensity (a.u.). As for “CCGGCCCCGCCGCCCGCCCGCACCGCTCCTCATTCCGTCGCGGAGTCACCTAGTGCAG”, the binding signal is 8480 fluorescence intensity (a.u.). Turning to “ATGCCATTTTTAACCTTACCAAGTTTTAGTAAAGTTGCCACGGAGTCACCTAGTGCAG”, the binding signal is 8600 fluorescence intensity (a.u.). Regarding “CACGAGTGTTCACGTCGACCATAATGGCACCACCACCCCGCGGAGTCACCTAGTGCAG”, the binding signal is 9370 fluorescence intensity (a.u.).

On to “TCCATTAGTCTCCAGCTATACGCATCTTCCCTAGCTTGCTCGGAGTCACCTAGTGCAG”, for which the binding signal was 8810 fluorescence intensity (a.u.). The value for “AATCTAACTCACCAAACCCATCTTTATCATATATAATCTTCGGAGTCACCTAGTGCAG” was 8210 fluorescence intensity (a.u.); that for “TCCCTCCGTTTCGTATTATAAGTCTCTTTGACTTTTTACTCGGAGTCACCTAGTGCAG” was 11000 fluorescence intensity (a.u.).

On to “GTGCGGACTGCCTGCCCTCTTTCCCATTTTGCCCCTGTTTCGGAGTCACCTAGTGCAG”, for which the binding signal is 8690 fluorescence intensity (a.u.).

In the case of “CATCCTGTTGGCCGAAGCCGGTATTGCTCTTATTCACCATCGGAGTCACCTAGTGCAG”, the binding signal is 10600 fluorescence intensity (a.u.). On to “GACATATCTCCTCGTTGTTTGCATGTCACTTAAATGATTACGGAGTCACCTAGTGCAG”, for which the binding signal is 10300 fluorescence intensity (a.u.). In the case of “AGATTCCGACGACAGCAAAGACAGCGACGGGAGGGGAGGGCGGAGTCACCTAGTGCAG”, the binding signal is 9790 fluorescence intensity (a.u.). As to “TCCCCTAGCTCTCTCTCGTCCACCTCGGGTTCCAACCGCACGGAGTCACCTAGTGCAG”, the binding signal was 9420 fluorescence intensity (a.u.).

Regarding “AAGAGGGCGCGGGTGGCGGGGATGGGCGAGGGGAAGGCGGCGGAGTCACCTAGTGCAG”, the binding signal was 17700 fluorescence intensity (a.u.). The value for “GCCGTATTGGATCGCCCTGCATATCTTGTCCCTGGCCTCGCGGAGTCACCTAGTGCAG” was 8780 fluorescence intensity (a.u.). Consider “CTGCCAGCCGTATAAACCTCTTCGGATCTTGTTGGTAGTACGGAGTCACCTAGTGCAG”, for which the binding signal is 8630 fluorescence intensity (a.u.). “GATGCAGGATTCAGGATGGGTATTCAGATTTATCAAATGACGGAGTCACCTAGTGCAG”: the binding signal was 8500 fluorescence intensity (a.u.). “CGCGCTTCTGCCGCTGCCCGACCCTATTACCCAAGCCCATCGGAGTCACCTAGTGCAG”: the binding signal is 8120 fluorescence intensity (a.u.). Regarding “ATCCGCGTGCATCCACTCTACTTATATCGTTCTTTTTTCCCGGAGTCACCTAGTGCAG”, the binding signal was 12500 fluorescence intensity (a.u.). The value for “TAGATAGGGGATGTATAGGACAAGAGAGAACACATGCATTCGGAGTCACCTAGTGCAG” was 8690 fluorescence intensity (a.u.); that for “ATTAACTCGAAGTTTTAATATTGACCATGCCATCCTTGATCGGAGTCACCTAGTGCAG” was 10200 fluorescence intensity (a.u.).

For the origin of these results see PMC7819943, “Rice protein-binding microarrays: a tool to detect cis-acting elements near promoter regions in rice”.
